This is one part of the list.
Compound: CC1=C2C(=CC=C1)N=C(N(C2=O)C3=CC=CC=C3C)CN4C=NC5=C(N=CN=C54)N
Assay: log2 fold change, soluble protein after heating vs DMSO (PISA); higher = thermal stabilisation; K562 lysate, 10 uM; active = over 0.2 and 3.5 SD of the protein, either way, in both replicates (recomputed)
Summary of the method: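 K562 pellets were dounce-homogenised in PBS pH 7.4 with 1 mM MgCl2, and the crude extract at 1 mg/mL protein was treated with 10 μM compound for 30 min. Aliquots were heated for 3 min across 48°C-58°C, pooled, and brought to 0.5% NP-40 at 4°C; soluble protein was the supernatant after 21,000xg for 90 min. Soluble protein was quantified by TMTpro 16plex LC-MS/MS with channel sums equalised, and reported as log2 fold change in thermal stability against DMSO controls, with values from duplicates.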

By UniProt entry, the sequences of proteins in these tests, tags left out. Where a name states a change or a piece, a line headed by the entry shows the natural chain unless it says otherwise.
UniProt Q9Y3B9: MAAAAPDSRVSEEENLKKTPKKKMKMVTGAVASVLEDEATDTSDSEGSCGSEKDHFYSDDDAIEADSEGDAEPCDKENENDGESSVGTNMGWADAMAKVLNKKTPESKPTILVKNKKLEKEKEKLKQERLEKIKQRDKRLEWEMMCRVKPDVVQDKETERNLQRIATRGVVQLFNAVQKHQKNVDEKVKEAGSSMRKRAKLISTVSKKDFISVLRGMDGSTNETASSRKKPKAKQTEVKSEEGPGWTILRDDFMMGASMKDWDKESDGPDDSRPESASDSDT
UniProt Q14684: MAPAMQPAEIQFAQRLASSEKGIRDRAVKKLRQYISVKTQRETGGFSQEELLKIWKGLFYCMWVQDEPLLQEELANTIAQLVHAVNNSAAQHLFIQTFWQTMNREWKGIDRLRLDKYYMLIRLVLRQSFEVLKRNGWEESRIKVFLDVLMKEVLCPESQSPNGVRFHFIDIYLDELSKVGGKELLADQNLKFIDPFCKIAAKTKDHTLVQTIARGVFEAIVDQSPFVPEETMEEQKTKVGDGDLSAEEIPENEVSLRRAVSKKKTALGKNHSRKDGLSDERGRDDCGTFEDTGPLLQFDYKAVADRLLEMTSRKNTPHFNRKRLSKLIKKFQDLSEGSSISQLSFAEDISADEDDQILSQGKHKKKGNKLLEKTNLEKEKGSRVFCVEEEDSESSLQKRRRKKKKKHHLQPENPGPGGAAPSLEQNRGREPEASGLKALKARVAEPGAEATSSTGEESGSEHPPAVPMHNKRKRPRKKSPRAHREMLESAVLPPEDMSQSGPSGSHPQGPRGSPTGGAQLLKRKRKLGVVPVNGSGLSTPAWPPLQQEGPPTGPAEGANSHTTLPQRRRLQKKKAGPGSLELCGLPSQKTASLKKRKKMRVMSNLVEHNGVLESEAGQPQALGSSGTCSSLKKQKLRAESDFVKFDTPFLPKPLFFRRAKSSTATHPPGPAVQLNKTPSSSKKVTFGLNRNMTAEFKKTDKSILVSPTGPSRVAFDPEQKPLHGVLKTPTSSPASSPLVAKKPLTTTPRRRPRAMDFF
UniProt O75298: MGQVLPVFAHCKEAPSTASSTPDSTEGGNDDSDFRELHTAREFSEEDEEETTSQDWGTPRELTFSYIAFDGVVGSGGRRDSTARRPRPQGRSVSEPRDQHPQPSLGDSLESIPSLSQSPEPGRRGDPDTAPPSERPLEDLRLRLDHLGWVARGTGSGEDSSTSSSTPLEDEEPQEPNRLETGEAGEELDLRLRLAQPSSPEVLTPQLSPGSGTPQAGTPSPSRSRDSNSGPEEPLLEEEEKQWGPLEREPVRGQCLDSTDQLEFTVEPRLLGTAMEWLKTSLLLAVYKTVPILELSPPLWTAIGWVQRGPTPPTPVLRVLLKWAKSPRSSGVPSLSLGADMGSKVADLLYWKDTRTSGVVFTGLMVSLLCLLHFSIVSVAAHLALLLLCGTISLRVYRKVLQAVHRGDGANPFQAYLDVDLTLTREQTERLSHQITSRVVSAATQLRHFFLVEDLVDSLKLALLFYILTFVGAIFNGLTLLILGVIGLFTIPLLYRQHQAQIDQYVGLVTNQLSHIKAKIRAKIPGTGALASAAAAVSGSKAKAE
UniProt O95197: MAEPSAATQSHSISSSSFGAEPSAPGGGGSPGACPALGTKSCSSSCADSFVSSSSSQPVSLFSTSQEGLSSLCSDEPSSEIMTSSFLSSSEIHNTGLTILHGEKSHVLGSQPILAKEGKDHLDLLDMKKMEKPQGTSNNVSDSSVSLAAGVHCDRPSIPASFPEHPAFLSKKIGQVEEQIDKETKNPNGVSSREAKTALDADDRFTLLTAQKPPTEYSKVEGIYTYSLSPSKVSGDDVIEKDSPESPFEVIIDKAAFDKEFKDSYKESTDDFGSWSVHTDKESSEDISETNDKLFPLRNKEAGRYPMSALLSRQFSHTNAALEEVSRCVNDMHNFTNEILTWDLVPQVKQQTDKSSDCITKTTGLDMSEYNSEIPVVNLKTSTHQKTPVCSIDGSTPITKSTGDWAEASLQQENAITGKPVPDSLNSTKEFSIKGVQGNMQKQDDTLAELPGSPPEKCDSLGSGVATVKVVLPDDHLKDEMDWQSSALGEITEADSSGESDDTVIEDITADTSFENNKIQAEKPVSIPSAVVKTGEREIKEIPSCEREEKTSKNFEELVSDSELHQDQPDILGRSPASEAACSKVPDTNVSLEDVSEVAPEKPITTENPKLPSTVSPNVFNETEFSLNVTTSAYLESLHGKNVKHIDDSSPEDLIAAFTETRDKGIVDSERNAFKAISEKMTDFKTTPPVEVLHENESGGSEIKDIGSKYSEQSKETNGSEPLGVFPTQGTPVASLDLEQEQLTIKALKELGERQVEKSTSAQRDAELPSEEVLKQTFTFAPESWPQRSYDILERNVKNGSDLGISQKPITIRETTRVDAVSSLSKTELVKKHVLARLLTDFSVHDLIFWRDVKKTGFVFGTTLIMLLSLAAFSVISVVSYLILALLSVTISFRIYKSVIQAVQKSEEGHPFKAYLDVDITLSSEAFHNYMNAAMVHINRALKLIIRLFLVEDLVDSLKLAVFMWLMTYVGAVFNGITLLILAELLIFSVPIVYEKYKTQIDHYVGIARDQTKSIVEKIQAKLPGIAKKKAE
UniProt Q96IZ7: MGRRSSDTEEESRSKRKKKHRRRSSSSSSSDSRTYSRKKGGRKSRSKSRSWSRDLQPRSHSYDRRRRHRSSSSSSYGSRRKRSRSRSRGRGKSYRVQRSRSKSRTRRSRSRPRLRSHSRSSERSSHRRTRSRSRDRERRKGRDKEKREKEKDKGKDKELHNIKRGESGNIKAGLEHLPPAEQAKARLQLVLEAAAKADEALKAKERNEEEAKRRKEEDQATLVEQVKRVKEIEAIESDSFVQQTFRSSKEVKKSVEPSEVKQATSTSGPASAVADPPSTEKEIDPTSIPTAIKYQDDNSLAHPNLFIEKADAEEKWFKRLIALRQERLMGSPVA
UniProt Q9H633: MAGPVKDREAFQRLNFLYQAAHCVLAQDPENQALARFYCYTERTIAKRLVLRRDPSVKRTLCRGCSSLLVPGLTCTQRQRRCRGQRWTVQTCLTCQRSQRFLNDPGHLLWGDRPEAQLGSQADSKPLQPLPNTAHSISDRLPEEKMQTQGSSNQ
UniProt Q96CM3: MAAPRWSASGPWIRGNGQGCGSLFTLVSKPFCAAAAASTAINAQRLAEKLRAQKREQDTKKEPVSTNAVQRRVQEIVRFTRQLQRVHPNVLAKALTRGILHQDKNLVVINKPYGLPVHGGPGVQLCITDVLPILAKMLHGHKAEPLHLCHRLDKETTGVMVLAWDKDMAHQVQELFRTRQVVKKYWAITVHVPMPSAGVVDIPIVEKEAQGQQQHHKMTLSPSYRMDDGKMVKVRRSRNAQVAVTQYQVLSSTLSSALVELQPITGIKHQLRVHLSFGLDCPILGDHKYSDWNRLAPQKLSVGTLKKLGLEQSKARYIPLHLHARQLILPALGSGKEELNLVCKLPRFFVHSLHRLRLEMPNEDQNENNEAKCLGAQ
UniProt O00442: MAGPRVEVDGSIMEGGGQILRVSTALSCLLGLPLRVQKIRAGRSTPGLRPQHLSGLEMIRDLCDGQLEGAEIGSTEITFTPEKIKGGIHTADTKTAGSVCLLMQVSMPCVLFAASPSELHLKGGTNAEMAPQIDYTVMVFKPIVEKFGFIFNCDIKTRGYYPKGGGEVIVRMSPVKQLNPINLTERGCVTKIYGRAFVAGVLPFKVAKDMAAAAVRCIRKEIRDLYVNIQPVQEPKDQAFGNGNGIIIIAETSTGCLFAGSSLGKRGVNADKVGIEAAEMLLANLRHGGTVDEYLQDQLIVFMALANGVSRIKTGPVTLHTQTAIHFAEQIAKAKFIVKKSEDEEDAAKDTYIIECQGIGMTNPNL
UniProt P05387, whole entry, looked up: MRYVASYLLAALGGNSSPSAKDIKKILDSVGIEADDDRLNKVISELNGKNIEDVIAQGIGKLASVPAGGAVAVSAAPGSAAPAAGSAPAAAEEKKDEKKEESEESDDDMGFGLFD
UniProt Q9UIY3: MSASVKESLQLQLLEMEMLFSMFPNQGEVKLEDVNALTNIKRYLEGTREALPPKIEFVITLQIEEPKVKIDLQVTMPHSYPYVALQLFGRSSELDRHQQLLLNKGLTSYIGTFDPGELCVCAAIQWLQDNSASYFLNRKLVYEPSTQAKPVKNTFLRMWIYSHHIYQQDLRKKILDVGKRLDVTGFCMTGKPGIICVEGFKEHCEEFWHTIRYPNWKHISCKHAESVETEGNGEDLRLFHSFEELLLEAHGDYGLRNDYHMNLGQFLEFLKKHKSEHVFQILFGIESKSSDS

| Target | log2 fold change |
| --- | --- |
| RPS6 (UniProt P62753) | inactive: 0.041 |
| RRP15 (UniProt Q9Y3B9) | inactive: 0.038 |
| RRP1B (UniProt Q14684) | inactive: 0.066 |
| RTN2 (UniProt O75298) | inactive: -0.001 |
| RTF1 (UniProt Q92541) | inactive: 0.015 |
| RTN3 isoform 5 (UniProt O95197) | inactive: -0.083 |
| RSRC1 (UniProt Q96IZ7) | inactive: 0.032 |
| RPL7 (UniProt P18124) | inactive: -0.008 |
| RPLP0 (UniProt P05388) | inactive: 0 |
| RPS25 (UniProt P62851) | inactive: -0.001 |
| RPP21 isoform 4 (UniProt Q9H633) | inactive: -0.001 |
| RPUSD4 (UniProt Q96CM3) | inactive: 0.005 |
| RTCA (UniProt O00442) | inactive: -0.01 |
| RPLP2 (UniProt P05387) | inactive: -0.017 |
| RPS21 (UniProt P63220) | inactive: 0.001 |
| RWDD2A (UniProt Q9UIY3) | inactive: -0.116 |
| RPS27A (UniProt P62979) | inactive: 0.038 |

Some values from the results shown.
RTN2 (UniProt O75298) | log2 fold change: inactive: -0.001
RTF1 (UniProt Q92541) | log2 fold change: inactive: 0.015
